# Literature values as cited in US20260076970A1, “CANCER TREATMENT USING MTDP INHIBITORS AND PLK1 INHIBITORS” (Cardiff Oncology, Inc., priority 2022, published 2026).
# Settings: cited from earlier work
smiles,measurement,value
"CC(=O)O[C@H]1C(=O)[C@@]2(C)[C@H]([C@H](OC(=O)c3ccccc3)[C@]3(O)C[C@H](OC(=O)[C@H](O)[C@@H](NC(=O)c4ccccc4)c4ccccc4)C(C)=C1C3(C)C)[C@]1(OC(C)=O)CO[C@@H]1C[C@@H]2O [paclitaxel, 5β,20-Epoxy-1,2α,4,7β,10β,13α-hexahydroxytax-11-en-9-one 4,10-diacetate 2-benzoate 13-ester with (2R,3S)-N-benzoyl-3-phenylisoserine]",solubility in water,insoluble in water
